Assay results from patent US20030129236A1, “Multiple pulse extended release formulations of clindamycin” (priority 2001, published 2003).

CCC[C@@H]1C[C@@H](C(=O)N[C@@H]([C@H]2O[C@H](SC)[C@H](O)[C@@H](O)[C@H]2O)[C@H](C)Cl)N(C)C1 [clindamycin]
Adverse side effects of release (human, in vivo): No adverse side effects | Level of colonic absorption (release in ascending colon): considerably higher than expected
